{"source": "PubChem BioAssay AID504842", "about": "(National Center for Advancing Translational Sciences (NCATS), 2011)", "note": "In all, about 330,000 compounds went through this assay and about 100 (0.03%) were called active. The shares of active, inactive and inconclusive entries below differ from those in the screen. Calls follow the shape of the dose curve; as a rule, active = well fitted inhibition curve with a large enough effect; inconclusive = small, poorly fitted or top-dose-only effect; inactive = flat fitted curve, though single readings scatter. Potencies of inconclusive entries are doubtful fits and often do not repeat. % is scaled to controls: 0 for no effect and ±100 for the full control effect; potency is read from the fitted curve at half-maximal effect.", "data": [{"tested_on": "Chaperonin Mm-Cpn (Methanococcus maripaludis)", "assay": "Inhibitors of TCP-1 ring complex (TRiC) of Methanococcus maripaludis (MmCpn): qHTS; also: nearly all actives have a fitted effect of over 80% in size;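 as to Potency: enzyme at 25 nM with ATP substrate at 10 µM during the reaction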", "details": "purified Mm-Cpn ATPase, ADP Transcreener TR-FRET; activity, negative = inhibition: at the top concentration", "outline": "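Quantitative HTS used 25 nM Mm-CPN and 10 uM ATP in magnesium/KCl Tris buffer, pH 7.4, with 1 mM DTT. Hydrolysis ran 30 min at 37°C; ADP was read by HTRF.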", "values": [{"smiles": "Cc1cc(C(=O)NNC(=S)NCc2ccccc2)cs1", "Potency": "inconclusive: 14.1 µM [inhibitor, single point]"}, {"smiles": "CCC(=O)c1ccc(OCC(=O)c2ccc3c(c2)NC(=O)CO3)cc1", "Potency": "inconclusive: 89.1 µM [inhibitor, single point]"}, {"smiles": "Cc1ccc(CNC(=O)Nc2ccccc2)cc1", "Potency": "inconclusive: 70.8 µM [inhibitor, single point]"}, {"smiles": "COc1cc(OC)cc(-c2c(C#Cc3ccsc3)c3cc(-c4cccc5[nH]ccc45)ccc3n2C)c1", "Potency": "inconclusive: 355 µM [inhibitor, partial curve, poor fit]"}, {"smiles": "COc1cc(C(=O)N/N=C/c2ccc(OC(=O)c3ccccc3)c(OC)c2)ccc1O", "Potency": "inconclusive: 17.8 µM [inhibitor, single point]"}, {"smiles": "CN(C)c1nc(SCCOC(=O)COc2ccc(Cl)cc2Cl)nc(N(C)C)n1", "Potency": "inconclusive: 89.1 µM [inhibitor, single point]"}, {"smiles": "S=c1[nH]nc(-c2ccccn2)n1/N=C/c1ccc(-c2ccccc2Br)o1", "Potency": "inconclusive: 112 µM [inhibitor, partial curve, poor fit]"}, {"smiles": "CCS(=O)(=O)Nc1cccc(C(=O)O)c1", "Potency": "inconclusive: 224 µM [inhibitor, partial curve, poor fit]"}, {"smiles": "CN(CC1CCCO1)S(=O)(=O)c1ccc(C(=O)Nc2nccs2)cc1", "note": "(stereo not given)", "Potency": "inconclusive: 22.4 µM [inhibitor, partial curve, poor fit]"}, {"smiles": "COc1cc2cnc(-c3ccccc3)c(C(=O)c3ccc(OCc4ccccc4)cc3)c2cc1OC", "Potency": "inconclusive: 100 µM [inhibitor, single point]"}, {"smiles": "CCOP(=O)(OCC)/C(C#N)=C/c1ccc(-c2ccc(F)cc2F)o1", "activity, negative = inhibition": "inactive: 0.58%"}, {"smiles": "CC(C)Oc1ccc(C(=O)NCC(=O)Nc2ccc3c(c2)CCC3)cc1", "Potency": "inconclusive: 100 µM [inhibitor, single point]"}, {"smiles": "Clc1c(-c2nnc3n2CCC3)sc2ccccc12", "Potency": "inconclusive: 200 µM [inhibitor, partial curve, poor fit]"}, {"smiles": "Cc1ccc(NC(=O)CSc2ncnc3ccccc23)cc1S(=O)(=O)N1CCCCC1", "Potency": "inconclusive: 89.1 µM [inhibitor, single point]"}, {"smiles": "O=C(Nc1ccc(-c2nc3cccnc3s2)cc1)c1ccc(Cl)nc1", "activity, negative = inhibition": "inactive: -1%"}, {"smiles": "OC(COc1ccc(Cl)cc1Cl)Cn1ccnc1", "note": "(stereo not given)", "Potency": "inconclusive: 28.2 µM [inhibitor, single point]"}, {"smiles": "COc1cc(CNC(C)(C)CO)cc(Br)c1OCc1ccc(Cl)cc1Cl", "activity, negative = inhibition": "inactive: -3.8%"}, {"smiles": "COCCNC(=O)/C(=C/c1ccccc1Cl)c1ccccc1", "Potency": "inconclusive: 7.08 µM [inhibitor, single point]"}, {"smiles": "COCCOC(=O)c1[nH]c2c(c1C)C(=O)CC(c1ccc(F)cc1)C2", "note": "(stereo not given)", "Potency": "inconclusive: 22.4 µM [inhibitor, single point]"}, {"smiles": "COc1ccccc1CCN1CCCC(CN(C)C(=O)CCC(N)=O)C1", "note": "(stereo not given)", "activity, negative = inhibition": "inactive: 0.96%"}, {"smiles": "CCOc1c(C)cnc2c1c(=O)n(Cc1cccc(Cl)c1)c(=O)n2C", "Potency": "inconclusive: 100 µM [inhibitor, single point]"}, {"smiles": "Cc1ccc(C)c(Cn2nnc3c(=O)[nH]c(C4CCCN(C(=O)CC(C)C)C4)nc32)c1", "note": "(stereo not given)", "activity, negative = inhibition": "inactive: 1.74%"}, {"smiles": "O=C(NNC(=O)c1c(O)c2ccccc2[nH]c1=O)c1ccccc1Br", "Potency": "inconclusive: 22.4 µM [inhibitor, single point]"}, {"smiles": "COc1ccccc1/C=C/C(=O)Nc1ccc(S(=O)(=O)Nc2cc(C)on2)cc1", "Potency": "inconclusive: 25.1 µM [inhibitor, single point]"}, {"smiles": "C=CCn1c(CNC(=O)c2ccco2)nnc1SCC(=O)c1ccc(OC)cc1", "Potency": "inconclusive: 14.1 µM [inhibitor, single point]"}, {"smiles": "O=C(Nc1ccccc1)c1sc(Cl)nc1-c1ccccc1", "Potency": "inconclusive: 100 µM [inhibitor, single point]"}, {"smiles": "COc1cc(-c2nc(S(=O)(=O)c3ccc(C)cc3)c(N3CCOCC3)o2)cc(OC)c1OC", "activity, negative = inhibition": "inactive: -1.61%"}, {"smiles": "COc1ccc(N2CCN(C(=O)CSc3nnc(-c4ccc5[nH]c(C)c(C)c5c4)o3)CC2)cc1", "activity, negative = inhibition": "inactive: -1.12%"}, {"smiles": "O=C(CN1C(=O)C2CC=CCC2C1=O)Nc1nnc(SCc2ccc(Cl)cc2)s1", "note": "(stereo not given)", "Potency": "inconclusive: 100 µM [inhibitor, single point]"}, {"smiles": "COc1ccc(C)cc1NC(=O)c1ccc(CN2CCN(c3ccccc3)CC2)cc1", "Potency": "inconclusive: 100 µM [inhibitor, single point]"}, {"smiles": "O=C(O)c1ccccc1C(=O)Nc1ccc(Br)c2cccnc12", "activity, negative = inhibition": "inactive: -0.74%"}, {"smiles": "COCCn1nnnc1C(c1ccc(OC)cc1)N1CCC(C)CC1", "note": "(stereo not given)", "activity, negative = inhibition": "inactive: -2.95%"}, {"smiles": "Fc1ccc(Br)cc1C1C=C(c2ccc(Br)s2)Nc2ncnn21", "note": "(stereo not given)", "Potency": "inconclusive: 100 µM [inhibitor, partial curve, poor fit]"}, {"smiles": "CN(C)/N=C/c1ccc(OS(=O)(=O)c2ccccc2)cc1", "activity, negative = inhibition": "inactive: -1.56%"}, {"smiles": "O=C(CNC(=O)c1ccc2ccccc2c1)OCC(=O)N1CCN(S(=O)(=O)c2ccc3ccccc3c2)CC1", "Potency": "inconclusive: 20 µM [inhibitor, single point]"}, {"smiles": "COc1ccc(-c2cc3ccccc3n2CC(O)Cn2nc(C)cc2C)cc1", "note": "(stereo not given)", "Potency": "inconclusive: 89.1 µM [inhibitor, single point]"}, {"smiles": "Cc1cc(SCC(=O)OCC(=O)N2CCCC2=O)c(C)cc1Br", "Potency": "inconclusive: 22.4 µM [inhibitor, single point]"}, {"smiles": "Nc1nc(CSC(=S)N2CCCCC2)nc(Nc2ccccc2)n1", "Potency": "inconclusive: 89.1 µM [inhibitor, single point]"}, {"smiles": "Cc1cc(N/N=C/c2ccc(O)cc2O)nc(-c2ccccc2O)n1", "Potency": "inconclusive: 112 µM [inhibitor, single point]"}, {"smiles": "Cn1c(SCC(=O)N2c3ccccc3Sc3ccccc32)nc2ccccc21", "Potency": "inconclusive: 79.4 µM [inhibitor, single point]"}, {"smiles": "CCCC(=O)Nc1cc2c(cc1C(=O)c1ccccc1)OCCO2", "Potency": "inconclusive: 5.62 µM [inhibitor, single point]"}, {"smiles": "CCN(c1ccc(C)cc1C)S(=O)(=O)c1nnc(NC(=O)c2ccco2)s1", "activity, negative = inhibition": "inactive: -7.33%"}, {"smiles": "Cc1ccnc(SCC(=O)c2ccc(Br)cc2)c1C#N", "Potency": "inconclusive: 70.8 µM [inhibitor, single point]"}, {"smiles": "CCOC(=O)c1[nH]c2ccc(OC)cc2c1NC(=S)N1CCN(C(=O)OCC)CC1", "Potency": "inconclusive: 398 µM [inhibitor, partial curve, poor fit]"}, {"smiles": "O=[N+]([O-])c1cccc(-c2ccc(/C=N/NC(=S)Nc3cccc(F)c3)o2)c1", "activity, negative = inhibition": "inactive: 1.07%"}, {"smiles": "COc1cc(C(=O)N2CCC(n3cnc4cc(F)ccc43)CC2)cc(OC)c1OC", "Potency": "inconclusive: 17.8 µM [inhibitor, single point]"}, {"smiles": "O=C(CSc1ccc(Br)c2cccc(Cl)c12)Nc1ccc(S(=O)(=O)Nc2nccs2)cc1", "Potency": "inconclusive: 79.4 µM [inhibitor, partial curve]"}, {"smiles": "O=C(Cc1cccs1)NCCSc1c(-c2ccc(Cl)cc2)[nH]c2ccccc12", "Potency": "inconclusive: 79.4 µM [inhibitor, single point]"}, {"smiles": "CCN1CCN(C(=S)Nc2ccc(Cl)cc2Cl)CC1", "Potency": "inconclusive: 100 µM [inhibitor, single point]"}, {"smiles": "CCOC(=O)C1=C(CC)Nc2ccccc2N/C1=N\\S(=O)(=O)c1ccccc1F", "Potency": "inconclusive: 79.4 µM [inhibitor, single point]"}, {"smiles": "Cc1nc(SCC(=O)N(CC(C)C)C2CCS(=O)(=O)C2)c(C#N)c(C)c1C", "note": "(stereo not given)", "Potency": "inconclusive: 17.8 µM [inhibitor, single point]"}, {"smiles": "CC1(C)S[C@@H]2[C@H](NC(=O)[C@H](N)c3ccccc3)C(=O)N2[C@H]1C(=O)O", "Potency": "inconclusive: 22.4 µM [inhibitor, single point]"}, {"smiles": "COc1ccc(C)cc1Nc1n[n+](-c2ccccc2)c(-c2cccc(Cl)c2Cl)s1", "Potency": "inconclusive: 100 µM [inhibitor, single point]"}, {"smiles": "COCCn1c(SCC(=O)/C=C2\\N(C)c3ccccc3C2(C)C)nnc1-c1ccncc1", "Potency": "inconclusive: 25.1 µM [inhibitor, single point]"}, {"smiles": "CCOC(=O)C1(Cc2cccc(OC)c2)CCN(Cc2cccc3c2OCO3)CC1", "activity, negative = inhibition": "inactive: -1.59%"}, {"smiles": "O=C(CN1C(=O)CSc2ccccc21)Nc1ccc2c(c1)OCCO2", "Potency": "inconclusive: 17.8 µM [inhibitor, single point]"}, {"smiles": "COc1ccc([N+](=O)[O-])cc1NC(=O)C1CCCCC1C(=O)O", "note": "(stereo not given)", "Potency": "inconclusive: 89.1 µM [inhibitor, single point]"}, {"smiles": "COCCNC(=O)/C(C#N)=C/c1c(N2CCN(c3ccc(OC)cc3)CC2)nc2c(C)cccn2c1=O", "activity, negative = inhibition": "inactive: -3.3%"}, {"smiles": "CCN(CC)c1ccc(C(=O)OCC(=O)N(C)Cc2ccccc2)cc1", "Potency": "inconclusive: 56.2 µM [inhibitor, single point]"}, {"smiles": "O=C(CN1C(=O)COc2ccccc21)Nc1ccccc1F", "Potency": "inconclusive: 63.1 µM [inhibitor, single point]"}, {"smiles": "Cc1ccc(-c2cc(N)nc(-c3ccccc3)c2)cc1", "Potency": "inconclusive: 50.1 µM [inhibitor, single point]"}, {"smiles": "Nc1nnc(SCC(=O)Nc2sc3c(c2C(=O)c2ccccc2)CCCC3)s1", "Potency": "inconclusive: 22.4 µM [inhibitor, single point]"}, {"smiles": "CCOc1ccccc1NC(=O)COc1ccc2c(c1)OCO2", "Potency": "inconclusive: 100 µM [inhibitor, single point]"}, {"smiles": "COc1ccc(-c2noc(COc3ccccc3OC)n2)cc1OC", "Potency": "inconclusive: 100 µM [inhibitor, single point]"}, {"smiles": "O=C(NC1=NCCS1)C1CC(=O)N(c2ccc(F)cc2)C1", "note": "(stereo not given)", "Potency": "inconclusive: 20 µM [inhibitor, single point]"}]}]}
